Data taken from article PMC2868802.
No constants are given. Whether binding was seen depends on the method and setting. For some of these results: In cells and extracts the contact can be indirect. Some entries that bind do so weakly or less than the wild type.

The chains behind the UniProt entries cited, without tags or fusion partners. Where a name states a change or a piece, a line headed by the entry shows the natural chain unless it says otherwise. Residues count along the entry.
UniProt Q9NBK5: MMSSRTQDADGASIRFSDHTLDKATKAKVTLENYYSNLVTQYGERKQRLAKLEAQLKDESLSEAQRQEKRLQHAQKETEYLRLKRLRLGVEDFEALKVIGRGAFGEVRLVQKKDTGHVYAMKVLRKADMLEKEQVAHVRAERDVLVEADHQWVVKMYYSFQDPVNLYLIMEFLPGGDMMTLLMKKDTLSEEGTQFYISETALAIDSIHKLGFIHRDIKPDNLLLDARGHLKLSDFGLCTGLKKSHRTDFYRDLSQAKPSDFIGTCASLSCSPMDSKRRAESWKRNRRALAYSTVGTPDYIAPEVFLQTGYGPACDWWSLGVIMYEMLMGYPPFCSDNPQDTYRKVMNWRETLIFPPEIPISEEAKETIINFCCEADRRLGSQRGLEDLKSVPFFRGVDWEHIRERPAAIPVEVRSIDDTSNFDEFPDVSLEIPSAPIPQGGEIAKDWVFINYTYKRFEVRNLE
truncated Trc (amino acids 1-404): residues 1-404 of Q9NBK5
smaller Trc protein (amino acids 1-337): residues 1-337 of Q9NBK5
UniProt Q9VT28: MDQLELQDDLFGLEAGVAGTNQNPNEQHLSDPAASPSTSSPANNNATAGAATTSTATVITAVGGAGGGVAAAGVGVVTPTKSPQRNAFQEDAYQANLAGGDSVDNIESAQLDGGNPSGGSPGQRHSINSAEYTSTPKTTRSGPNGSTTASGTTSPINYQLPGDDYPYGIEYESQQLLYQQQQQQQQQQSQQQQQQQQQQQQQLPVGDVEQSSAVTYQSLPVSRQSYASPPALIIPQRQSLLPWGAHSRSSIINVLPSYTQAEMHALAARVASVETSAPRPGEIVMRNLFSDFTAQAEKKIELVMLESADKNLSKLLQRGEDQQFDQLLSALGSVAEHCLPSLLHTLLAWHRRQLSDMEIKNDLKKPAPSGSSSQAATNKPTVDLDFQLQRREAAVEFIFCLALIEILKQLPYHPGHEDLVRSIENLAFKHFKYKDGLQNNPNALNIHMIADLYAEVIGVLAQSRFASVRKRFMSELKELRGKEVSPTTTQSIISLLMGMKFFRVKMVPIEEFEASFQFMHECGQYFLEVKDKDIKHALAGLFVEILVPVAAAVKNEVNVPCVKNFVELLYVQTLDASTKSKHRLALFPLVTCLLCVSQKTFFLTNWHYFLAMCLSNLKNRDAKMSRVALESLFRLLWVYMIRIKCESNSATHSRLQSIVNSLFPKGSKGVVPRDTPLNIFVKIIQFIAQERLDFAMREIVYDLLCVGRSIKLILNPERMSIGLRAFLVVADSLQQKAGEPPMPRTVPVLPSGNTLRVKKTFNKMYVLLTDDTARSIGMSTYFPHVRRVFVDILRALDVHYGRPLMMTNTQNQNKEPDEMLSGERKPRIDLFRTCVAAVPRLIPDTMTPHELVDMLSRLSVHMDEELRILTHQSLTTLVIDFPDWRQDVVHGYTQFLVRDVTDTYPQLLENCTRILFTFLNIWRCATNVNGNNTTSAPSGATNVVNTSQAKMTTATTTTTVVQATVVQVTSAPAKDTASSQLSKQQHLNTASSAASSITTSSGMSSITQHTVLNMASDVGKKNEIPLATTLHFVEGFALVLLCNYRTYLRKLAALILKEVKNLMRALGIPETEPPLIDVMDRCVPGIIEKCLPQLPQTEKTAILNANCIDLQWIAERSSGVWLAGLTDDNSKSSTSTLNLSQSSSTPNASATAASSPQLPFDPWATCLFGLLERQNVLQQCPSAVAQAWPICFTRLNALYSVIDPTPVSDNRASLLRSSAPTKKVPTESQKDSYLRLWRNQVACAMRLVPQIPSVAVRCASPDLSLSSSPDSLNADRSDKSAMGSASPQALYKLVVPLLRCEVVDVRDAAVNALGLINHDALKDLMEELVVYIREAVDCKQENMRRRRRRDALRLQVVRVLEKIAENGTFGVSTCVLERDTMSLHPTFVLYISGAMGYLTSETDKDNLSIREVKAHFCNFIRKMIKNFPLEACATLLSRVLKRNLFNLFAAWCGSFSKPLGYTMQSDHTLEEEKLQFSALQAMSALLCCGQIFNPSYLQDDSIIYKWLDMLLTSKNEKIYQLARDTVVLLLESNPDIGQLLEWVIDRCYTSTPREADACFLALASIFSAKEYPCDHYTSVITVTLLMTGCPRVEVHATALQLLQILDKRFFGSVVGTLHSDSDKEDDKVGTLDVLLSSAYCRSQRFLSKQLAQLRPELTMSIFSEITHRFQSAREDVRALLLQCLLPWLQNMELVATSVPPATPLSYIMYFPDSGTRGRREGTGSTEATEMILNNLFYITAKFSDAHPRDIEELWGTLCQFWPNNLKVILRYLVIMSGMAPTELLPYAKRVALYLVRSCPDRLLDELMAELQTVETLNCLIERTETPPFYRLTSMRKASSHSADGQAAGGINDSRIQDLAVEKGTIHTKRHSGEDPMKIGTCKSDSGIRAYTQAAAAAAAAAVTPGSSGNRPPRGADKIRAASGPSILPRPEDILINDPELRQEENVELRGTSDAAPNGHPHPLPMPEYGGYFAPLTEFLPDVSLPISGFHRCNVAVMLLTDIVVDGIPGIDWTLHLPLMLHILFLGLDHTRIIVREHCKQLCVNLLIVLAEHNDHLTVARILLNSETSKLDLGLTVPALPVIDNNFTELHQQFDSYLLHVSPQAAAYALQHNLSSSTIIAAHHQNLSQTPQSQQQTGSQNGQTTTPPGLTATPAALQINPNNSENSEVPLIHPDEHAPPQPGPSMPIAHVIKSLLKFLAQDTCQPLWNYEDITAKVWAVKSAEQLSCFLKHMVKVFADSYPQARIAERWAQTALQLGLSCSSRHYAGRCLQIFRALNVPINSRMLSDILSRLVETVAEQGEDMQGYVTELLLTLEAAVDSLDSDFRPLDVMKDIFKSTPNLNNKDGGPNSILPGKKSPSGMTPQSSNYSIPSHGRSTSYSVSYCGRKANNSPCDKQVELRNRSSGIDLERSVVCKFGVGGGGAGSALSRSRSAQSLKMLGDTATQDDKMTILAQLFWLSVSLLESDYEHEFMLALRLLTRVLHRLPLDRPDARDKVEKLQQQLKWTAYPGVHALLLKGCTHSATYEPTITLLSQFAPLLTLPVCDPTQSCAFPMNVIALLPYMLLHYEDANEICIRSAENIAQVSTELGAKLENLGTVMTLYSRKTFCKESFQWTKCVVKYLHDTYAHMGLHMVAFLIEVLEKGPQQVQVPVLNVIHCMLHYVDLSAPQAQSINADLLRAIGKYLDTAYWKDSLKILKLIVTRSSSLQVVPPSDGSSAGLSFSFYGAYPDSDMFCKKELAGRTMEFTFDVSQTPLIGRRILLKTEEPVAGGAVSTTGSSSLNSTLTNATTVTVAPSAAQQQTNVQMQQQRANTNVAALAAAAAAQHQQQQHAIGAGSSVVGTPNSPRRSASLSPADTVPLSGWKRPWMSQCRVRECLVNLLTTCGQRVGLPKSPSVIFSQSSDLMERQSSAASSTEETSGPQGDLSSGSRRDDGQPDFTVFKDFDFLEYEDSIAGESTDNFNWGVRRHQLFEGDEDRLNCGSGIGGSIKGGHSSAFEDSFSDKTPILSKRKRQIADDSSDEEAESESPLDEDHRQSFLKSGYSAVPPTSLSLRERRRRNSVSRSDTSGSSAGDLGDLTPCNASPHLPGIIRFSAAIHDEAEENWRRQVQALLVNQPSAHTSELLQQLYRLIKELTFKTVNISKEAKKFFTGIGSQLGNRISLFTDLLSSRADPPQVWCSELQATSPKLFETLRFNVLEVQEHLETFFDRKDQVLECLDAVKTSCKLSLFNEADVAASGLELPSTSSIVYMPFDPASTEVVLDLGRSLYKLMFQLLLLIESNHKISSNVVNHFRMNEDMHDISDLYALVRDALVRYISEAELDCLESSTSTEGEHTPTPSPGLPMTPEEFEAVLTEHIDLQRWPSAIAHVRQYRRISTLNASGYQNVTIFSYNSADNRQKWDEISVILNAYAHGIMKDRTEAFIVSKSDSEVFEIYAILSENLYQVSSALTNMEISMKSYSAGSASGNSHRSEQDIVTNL

Assays:
Trc-FLAG (Drosophila) = Trc-FLAG (Drosophila) (UniProt Q9NBK5); assay: co-IP; extracts of wing discs of transgenic flies expressing both proteins by actin-GAL4; Trc-FLAG pulled down by rabbit anti-FLAG, blot probed with mouse anti-GFP or mouse anti-Myc
[1] = biological target: truncated Trc (amino acids 1-404) (Drosophila) (UniProt Q9NBK5); assay: two-hybrid; Matchmaker GAL4 two hybrid system 3 (Clontech); N-Fry in pGADT7, Trc proteins in pGBKT7; scored as interacting by complementation for growth and induction of beta-galactosidase
[2] = biological target: smaller Trc protein (amino acids 1-337) (Drosophila) (UniProt Q9NBK5); assay: as above

binding (Trc-FLAG (Drosophila))	binding [1]	binding [2]	Substance
binds	–	–	Myc-Fry-GFP (from UniProt Q9VT28 1-3479)
binds	–	–	Myc-N-Fry (transgene in flies) (from UniProt Q9VT28 1-1637) (domain or fragment)
–	binds	no binding	amino terminal fragment of Fry (amino terminal 1637 amino acids) in pGADT7 (from UniProt Q9VT28 1-1637) (domain or fragment)
